Measured data: PubChem BioAssay AID652243 (Drosophila RNAi Screening Center, 2013)

Test: 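Knock-downs that decrease or increase androgen receptor reporter signal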 (primary screen)
Cell system: Drosophila S2R+ cells
Reagents: long dsRNA against Drosophila genes
Timing: 72 h (48 h, then 24 h hormone)
Challenge: synthetic androgen R1881 at 10 nM for 24 h
Detection: 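Per-well raw luminescence of the androgen-driven firefly reporter and of the Renilla control, two replicates each, without normalisation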
Reading the numbers: firefly reporter light: higher = more light from androgen-responsive reporter; Renilla control light: higher = more constitutive control signal (cell number, transfection)
Active means: 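Across duplicate plates, a knock-down whose log firefly/Renilla ratio shifted a set fold down or up from the GFP/LacZ control mean was a hit; the downward cut appears as both 1.5 and 3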
Meaning of the calls: active = hit: reporter lowered or raised; inactive = no hit
The deposit covers about 24,000 reagents; shown is a random part of those with a known target gene and a result. In the full data, 246 (1%) got an active call. 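Plates not normalised; calls are printed but the firefly/Renilla ratio behind them is not deposited; fold cut for lowering reported inconsistently.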 Raw values vary from plate to plate and are shown uncorrected. The numbers tell different reagents against one gene apart. A plus sign joins genes that one reagent is predicted to hit. Not stated in the record: the amount of reagent.

| gene | reagent | firefly reporter light, replicate 1 | firefly reporter light, replicate 2 | Renilla control light, replicate 1 | Renilla control light, replicate 2 | Outcome |
| --- | --- | --- | --- | --- | --- | --- |
| neur + asRNA:CR31429 | 1 | 67313 | 43565 | 2.38e5 | 3.05e5 | inactive |
| neur + asRNA:CR31429 | 2 | 4.70e5 | 3.82e5 | 1.25e6 | 1.45e6 | inactive |
| Ork1 (Open rectifier K[+] channel 1) | 1 | 43329 | 40657 | 3.91e5 | 1.93e5 | inactive |
| Cpr (Cytochrome P450 reductase) | 1 | 8.62e5 | 9.08e5 | 2.06e6 | 2.03e6 | inactive |
| Cpr (Cytochrome P450 reductase) | 2 | 4.02e5 | 6.89e5 | 9.28e5 | 1.43e6 | inactive |
| CG6769 | 1 | 1.21e5 | 2.88e5 | 7.08e5 | 8.16e5 | inactive |
| CG15756 | 1 | 3.40e5 | 2.96e5 | 2.60e6 | 2.71e6 | inactive |
| CG15756 | 2 | 8.50e5 | 7.02e5 | 7.86e5 | 1.02e6 | inactive |
| CG4230 | 1 | 5.50e5 | 6.78e5 | 1.23e6 | 1.17e6 | inactive |
| CG34433 | 1 | 2.73e5 | 2.61e5 | 2.24e6 | 2.55e6 | inactive |
| CG31706 | 1 | 5.83e5 | 4.85e5 | 1.39e6 | 1.19e6 | inactive |
| CG17633 | 1 | 1.89e5 | 1.11e5 | 1.40e6 | 1.09e6 | inactive |
| CG17633 | 2 | 2.72e5 | 3.74e5 | 7.44e5 | 1.16e6 | inactive |
| Elba1 (Early boundary activity 1) | 1 | 1.28e5 | 1.42e5 | 6.46e5 | 6.50e5 | inactive |
| Elba1 (Early boundary activity 1) | 2 | 7.32e5 | 6.05e5 | 7.75e5 | 7.87e5 | inactive |
| CG9698 | 1 | 2.28e5 | 1.75e5 | 2.05e6 | 2.55e6 | inactive |
| Or82a (Odorant receptor 82a) | 1 | 3.39e5 | 3.43e5 | 7.67e5 | 6.36e5 | inactive |
| GABA-B-R1 (metabotropic GABA-B receptor subtype 1) | 1 | 8.51e5 | 6.94e5 | 2.00e6 | 1.29e6 | inactive |
| Tango6 (Transport and Golgi organization 6) | 1 | 3.50e5 | 4.63e5 | 1.13e6 | 1.17e6 | inactive |
| Tango6 (Transport and Golgi organization 6) | 2 | 2.80e5 | 3.93e5 | 6.77e5 | 6.77e5 | inactive |
| Tmlh (Trimethyllysine hydroxylase) | 1 | 2.79e5 | 4.06e5 | 2.91e6 | 3.35e6 | inactive |
| CG5554 | 1 | 2.55e5 | 2.88e5 | 1.12e6 | 8.10e5 | inactive |
| CG5554 | 2 | 6.45e5 | 9.82e5 | 8.45e5 | 9.77e5 | inactive |
| Est-P (Esterase P) | 1 | 1.46e5 | 1.50e5 | 1.55e6 | 1.72e6 | inactive |
| Est-P (Esterase P) | 2 | 4.38e5 | 4.32e5 | 1.66e6 | 1.38e6 | inactive |
| CG13239 | 1 | 3.21e5 | 1.80e5 | 1.48e6 | 1.82e6 | inactive |
| CG2909 | 1 | 1.59e5 | 1.74e5 | 2.37e6 | 3.09e6 | inactive |
| CG34292 | 1 | 6.74e5 | 3.77e5 | 2.14e6 | 1.13e6 | inactive |
| Odc2 (Ornithine decarboxylase 2) | 1 | 4.36e5 | 4.42e5 | 1.91e6 | 1.81e6 | inactive |
| Odc2 (Ornithine decarboxylase 2) | 2 | 3.02e5 | 2.89e5 | 1.21e6 | 1.14e6 | active |
| Odc2 (Ornithine decarboxylase 2) | 3 | 1.01e6 | 1.01e6 | 1.30e6 | 1.46e6 | inactive |
| Rab3 | 1 | 1.03e6 | 7.11e5 | 2.56e6 | 1.88e6 | inactive |
| CG11227 | 1 | 2.22e5 | 1.18e5 | 5.82e5 | 2.86e5 | inactive |
| CG11227 | 2 | 9.25e5 | 8.76e5 | 1.67e6 | 1.77e6 | inactive |
| CG1537 | 1 | 2.81e5 | 3.63e5 | 3.58e6 | 4.47e6 | inactive |
| CG7289 | 1 | 9.71e5 | 1.15e6 | 2.52e6 | 2.25e6 | inactive |
| Nup205 (Nucleoporin 205kD) | 1 | 87652 | 1.09e5 | 4.61e5 | 6.10e5 | inactive |
| Ubr3 (Ubr3 ubiquitin ligase) | 1 | 30451 | 44755 | 4.69e5 | 3.63e5 | inactive |
| Ubr3 (Ubr3 ubiquitin ligase) | 2 | 2.53e5 | 1.88e5 | 2.79e6 | 2.01e6 | inactive |
| Ubr3 (Ubr3 ubiquitin ligase) | 3 | 6.19e5 | 4.81e5 | 9.18e5 | 8.92e5 | inactive |
| Ubr3 (Ubr3 ubiquitin ligase) | 4 | 4.88e5 | 5.60e5 | 1.32e6 | 1.24e6 | inactive |
| CG31323 | 1 | 1.35e5 | 1.92e5 | 2.61e6 | 2.63e6 | inactive |
| CG6508 | 1 | 1.74e5 | 1.97e5 | 1.40e6 | 1.39e6 | inactive |
| CG30048 | 1 | 6.67e5 | 7.85e5 | 1.80e6 | 1.49e6 | inactive |
| Ptp4E (Protein tyrosine phosphatase 4E) | 1 | 50087 | 80985 | 5.60e5 | 5.17e5 | inactive |
| Ptp4E (Protein tyrosine phosphatase 4E) | 2 | – | – | – | – | inactive |
| Ptp4E (Protein tyrosine phosphatase 4E) | 3 | – | – | – | – | inactive |
| spt4 | 1 | 8.97e5 | 8.57e5 | 1.80e6 | 1.82e6 | inactive |
| CG1648 | 1 | 3.66e5 | 4.78e5 | 1.55e6 | 2.08e6 | inactive |
| CG1648 | 2 | 5.52e5 | 5.14e5 | 1.00e6 | 1.12e6 | inactive |
| CG6700 | 1 | 1.07e6 | 3.85e5 | 2.33e6 | 1.30e6 | inactive |
| CG6700 | 2 | 8.31e5 | 6.77e5 | 1.10e6 | 9.91e5 | inactive |
| CG16879 (retired record) | 1 | 3.19e5 | 2.95e5 | 2.72e6 | 2.45e6 | inactive |
| CG16879 (retired record) | 2 | 4.92e5 | 1.02e6 | 1.35e6 | 2.42e6 | inactive |
| CG7024 | 1 | 3.21e5 | 2.85e5 | 3.82e6 | 3.36e6 | inactive |
| CG7024 | 2 | 3.00e5 | 2.39e5 | 5.05e5 | 5.94e5 | inactive |
| mam (mastermind) | 1 | 1.24e5 | 1.62e5 | 5.38e5 | 3.92e5 | inactive |
| mam (mastermind) | 2 | 6.51e5 | 7.54e5 | 8.12e5 | 1.23e6 | inactive |
| mam (mastermind) | 3 | 2.99e5 | 2.09e5 | 7.78e5 | 5.18e5 | inactive |
| Pcd (pterin-4a-carbinolamine dehydratase) | 1 | 1.46e5 | 1.59e5 | 2.05e6 | 2.96e6 | inactive |
| CG13560 | 1 | 3.60e5 | 3.05e5 | 2.54e6 | 1.74e6 | inactive |
| CG13560 | 2 | 5.44e5 | 5.24e5 | 5.43e5 | 7.82e5 | inactive |
| CG30096 | 1 | 4.56e5 | 3.27e5 | 2.63e6 | 2.18e6 | inactive |
| mbt (mushroom bodies tiny) | 1 | 4.08e5 | 4.29e5 | 1.80e6 | 2.24e6 | active |
| mbt (mushroom bodies tiny) | 2 | 3.73e5 | 5.29e5 | 8.61e5 | 7.59e5 | inactive |
| CG17637 | 1 | 2.13e5 | 1.91e5 | 1.88e6 | 1.92e6 | inactive |
| CG14000 | 1 | 84607 | 96852 | 1.23e6 | 1.15e6 | inactive |
| pnut (peanut) | 1 | 1.20e6 | 6.40e5 | 1.65e6 | 1.32e6 | inactive |
| pnut (peanut) | 2 | 4.15e5 | 4.53e5 | 5.89e5 | 5.49e5 | inactive |
| Lapsyn (Leucine-rich repeat activity-regulated protein at synapses) | 1 | 8.35e5 | 5.18e5 | 9.76e5 | 7.52e5 | inactive |
| CG32450 | 1 | 2.32e5 | 2.86e5 | 6.28e5 | 6.02e5 | inactive |
| AANATL4 (Arylalkylamine N-acetyltransferase-like 4) | 1 | 25310 | 72858 | 6.30e5 | 7.93e5 | inactive |
| Cpr66Cb (Cuticular protein 66Cb) | 1 | 3.26e5 | 2.16e5 | 2.96e6 | 1.91e6 | inactive |
| cg (combgap) | 1 | 5.33e5 | 5.30e5 | 1.44e6 | 1.68e6 | inactive |
| cg (combgap) | 2 | 3.46e5 | 2.44e5 | 1.09e6 | 1.35e6 | inactive |

Taken from above.
Ubr3 (Ubr3 ubiquitin ligase) #4, firefly reporter light, replicate 2: 5.60e5
CG1648 #1, firefly reporter light, replicate 1 = 3.66e5
Odc2 (Ornithine decarboxylase 2) #1, firefly reporter light, replicate 2: 4.42e5
Rab3, firefly reporter light, replicate 2: 7.11e5
Value for pnut (peanut) #2 in “Renilla control light, replicate 2”: 5.49e5
For “Outcome”, Ptp4E (Protein tyrosine phosphatase 4E) #3 shows inactive
